Source: paper PMC8050080, “Cannabis sativa terpenes are cannabimimetic and selectively enhance cannabinoid activity” (Scientific Reports, 2021)
No constants are given. Whether binding was seen depends on the method and setting. In cells and extracts the contact can be indirect. Some entries that bind do so weakly or less than the wild type.

By UniProt entry, the sequences of proteins in these tests, tags left out.
UniProt P21554: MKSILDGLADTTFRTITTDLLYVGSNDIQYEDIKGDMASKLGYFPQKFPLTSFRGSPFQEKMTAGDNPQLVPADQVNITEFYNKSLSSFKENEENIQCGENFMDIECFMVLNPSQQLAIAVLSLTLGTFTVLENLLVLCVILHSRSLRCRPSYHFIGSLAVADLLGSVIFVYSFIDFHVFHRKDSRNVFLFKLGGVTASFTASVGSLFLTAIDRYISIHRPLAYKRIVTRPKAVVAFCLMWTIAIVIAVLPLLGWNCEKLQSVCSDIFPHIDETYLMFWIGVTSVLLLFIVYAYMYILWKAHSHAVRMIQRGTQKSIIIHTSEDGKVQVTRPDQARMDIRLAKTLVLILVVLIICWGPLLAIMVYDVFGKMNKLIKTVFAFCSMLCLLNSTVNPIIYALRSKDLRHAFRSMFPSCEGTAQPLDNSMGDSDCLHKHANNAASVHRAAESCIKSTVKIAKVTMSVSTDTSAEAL
UniProt P32121: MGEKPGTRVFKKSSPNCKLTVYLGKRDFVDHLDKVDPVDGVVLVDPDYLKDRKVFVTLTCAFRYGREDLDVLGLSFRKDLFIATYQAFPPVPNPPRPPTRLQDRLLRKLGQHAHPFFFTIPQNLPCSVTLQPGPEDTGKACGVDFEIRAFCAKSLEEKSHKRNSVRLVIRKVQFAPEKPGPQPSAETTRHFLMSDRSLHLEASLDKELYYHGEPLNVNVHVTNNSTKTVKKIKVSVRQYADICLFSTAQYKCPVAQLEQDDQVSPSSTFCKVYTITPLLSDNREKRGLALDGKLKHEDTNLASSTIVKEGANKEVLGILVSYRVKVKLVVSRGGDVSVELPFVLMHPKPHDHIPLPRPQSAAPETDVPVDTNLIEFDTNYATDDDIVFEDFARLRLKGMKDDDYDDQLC

Biological target: cannabinoid receptor type 1 (CB1 receptor) (human) (UniProt P21554)
Experiment: split reporter; PathHunter assay; CB1-CHO-βarr2 cells in 384-well plates (5000 cells/well) in Opti-MEM with 1% FBS; treated with varying concentrations of WIN55,212-2 for 1.5 h; luminescence read

binding: binds
Substance: βarrestin2 (from UniProt P32121 1-409)
